Legend:
hCG = test: Chemiluminescence enzyme immunoassay of hCG (POD-labeled antibody, luminol, hydrogen peroxide) with enhancer; format: biochemical, human
[1] = Chemiluminescence enzyme immunoassay of E2 (POD-labeled anti-immunocomplex antibody, luminol, hydrogen peroxide) with enhancer; format: biochemical
[2] = concentration of enhancer 0.10 (reaction concentration, mM), luminescence intensity of 10 mIU/mL hCG solution / blank sample
[3] = concentration of enhancer 0.10 (reaction concentration, mM), luminescence intensity of 30,000 mIU/mL / 20,000 mIU/mL hCG solution
[4] = concentration of enhancer 0.10 (reaction concentration, mM), luminescence intensity of 200 μg/mL E2 solution / blank
[5] = concentration of enhancer 0.10 (reaction concentration, mM), luminescence intensity of 3,000 μg/mL / 2,000 μg/mL E2 solution

Row | Compound | Low sensitivity [1, 4] | High sensitivity [1, 5] | other results
1 | O=C(O)c1ccc(-c2ccc(O)cc2)cc1 [BiPCA, 4-(4-hydroxyphenyl)benzoic acid] | 41.87 | 1.61 | Low sensitivity (hCG; [2]): 36.97; High sensitivity (hCG; [3]): 1.23; Low sensitivity (hCG; concentration of enhancer 0.15 (reaction concentration, mM), 10 mIU/mL hCG / blank): 37.75; High sensitivity (hCG; concentration of enhancer 0.15 (reaction concentration, mM), 30,000 / 20,000 mIU/mL hCG): 1.25; Low sensitivity (hCG; concentration of enhancer 0.30 (reaction concentration, mM), 10 mIU/mL hCG / blank): 38.66; High sensitivity (hCG; concentration of enhancer 0.30 (reaction concentration, mM), 30,000 / 20,000 mIU/mL hCG): 1.22; Low sensitivity ([1]; concentration of enhancer 0.15 (reaction concentration, mM), 200 μg/mL E2 / blank): 42.21; High sensitivity ([1]; concentration of enhancer 0.15 (reaction concentration, mM), 3,000 / 2,000 μg/mL E2): 1.62; Low sensitivity ([1]; concentration of enhancer 0.30 (reaction concentration, mM), 200 μg/mL E2 / blank): 49.20; High sensitivity ([1]; concentration of enhancer 0.30 (reaction concentration, mM), 3,000 / 2,000 μg/mL E2): 1.59
2 | O=C(O)c1cccc(-c2ccc(O)cc2)c1 [Example 3] | 37.48 | 1.63 | –
3 | NC(=O)c1ccc(-c2ccc(O)cc2)cc1 [Example 4] | 32.47 | 1.64 | –
4 | Oc1ccc(-c2cccc(F)c2)cc1 [Example 5] | 36.56 | 1.31 | –
5 | COc1ccccc1-c1ccc(O)cc1 [Example 6] | 38.72 | 1.30 | –
6 | Oc1ccc(-c2cccc(Cl)c2)cc1 [Example 7] | 25.97 | 1.48 | –
7 | Cc1ccc(-c2ccc(O)cc2)nc1 [Example 8] | 56.23 | 1.49 | –
8 | Cc1cccc(-c2ccc(O)cc2)n1 [Example 9] | 44.76 | 1.69 | –
9 | Oc1ccc(-c2ccccn2)cc1 [Example 10] | 40.33 | 1.86 | –
10 | COc1cccc(-c2ccc(O)cc2)n1 [Example 11] | 34.51 | 1.81 | –
11 | COc1ncccc1-c1ccc(O)cc1 [Example 12] | 40.38 | 1.41 | –
12 | Cc1cncc(-c2ccc(O)cc2)c1 [Example 13] | 39.94 | 1.71 | –
13 | O=C(O)c1cc(-c2ccc(O)cc2)cs1 [Example 14] | 42.67 | 1.60 | –
14 | O=C(O)c1ccc(-c2ccc(O)cc2)s1 [Example 15] | 38.30 | 1.76 | –
15 | Oc1ccc(-c2cocn2)cc1 [Example 16] | 25.22 | 1.60 | –
16 | Oc1ccc(-n2cccc2)cc1 [Example 17] | 29.07 | 1.79 | –
17 | Oc1ccc(Br)cc1 [PBP, reference compound] | 8.15 | 1.62 | Low sensitivity ([1]; concentration of enhancer 0.10 (reaction concentration, mM), luminescence intensity of 200 μg/mL E2 solution / blank, listed as Comparative Example 3): significantly reduced; High sensitivity ([1]; concentration of enhancer 0.10 (reaction concentration, mM), luminescence intensity of 3,000 μg/mL / 2,000 μg/mL E2 solution, listed as Comparative Example 3): improved
18 | Oc1ccc(I)cc1 [PIP, reference compound] | 17.91 | 1.68 | Low sensitivity ([1]; concentration of enhancer 0.10 (reaction concentration, mM), luminescence intensity of 200 μg/mL E2 solution / blank, listed as Comparative Example 4): significantly reduced; High sensitivity ([1]; concentration of enhancer 0.10 (reaction concentration, mM), luminescence intensity of 3,000 μg/mL / 2,000 μg/mL E2 solution, listed as Comparative Example 4): improved
19 | Oc1ccccc1.c1cscn1 [TP, thiazole phenol, reference compound] | 30.67 | 0.87 | Low sensitivity (hCG; [2]): 19.78; High sensitivity (hCG; [3]): 0.99
